We go through 1 molecule from patent US20240325461A1, “COMBINATION THERAPIES FOR THE TREATMENT OF DISEASES” (Research Development Foundation, priority 2023, published 2024).

The subject of the test is ovariectomized female mice. The experiment in a line: 3-point bending test of femur, curative model. Type of test: in vivo, C57BL/6J mice. As to conditions: postmortem, day 60. From the text:
A curative mouse model for osteoporosis was used for experiments, as follows. 16-week old female C57Bl/6J mice were ovariectomized and left for 2 months to develop the symptoms of osteoporosis and postmenopausal weigh gain and glucose intolerance. Administration of the respective treatment was initiated following these 2 months after the ovariectomies, i.e, once the mice already developed the symptoms of the respective metabolic disease.
Synergistic improvements from the combination were observed.
Ovariectomy: 16 weeks old C57Bl/6J female mice, obtained through Janvier, were be anesthetised with Xylazin/Ketamin (injection of 120 μl of a mixture of 120 mg/kg ketamine and 16 mg/kg xylazine) and shaved below the ribs on the back side. Betadine was be applied to the area for appropriate disinfection. After a 1-2 cm incision through the skin and the muscle layer just below the ribs, the ovary was localized, the fallopian tube ligated with dissolving suture and the ovary removed. The muscle layer was sutured with dissolving suture, the wound closed with staples and disinfected. The same procedure was/will be performed on the other side. A dose of Tamgesic was/will be administered 4 hours after the surgery, and the staples were removed 7 days after the surgery under isoflurane anesthesia. […]

For `NCCCC(O)(P(=O)(O)O)P(=O)(O)O` [alendronate], the “Yield point, femur metaphysis” value is reported as “not observed to result in a statistically significant increase” and the “Yield point, femur midshaft” value is “not observed to result in improvements”.
